Source: PubChem BioAssay AID1487 (National Center for Advancing Translational Sciences (NCATS), 2009)
The other results are listed elsewhere or left out. Shown are side measurements of this screen, not its main read-out; they come without a call. Compounds called inactive in the main read-out are mostly missing here. Words in brackets tell the shape of the fitted curve; partial curves, single points and poor fits give uncertain potencies.

Experiment: qHTS Assay for Modulators of Lamin A Splicing
Settings: HeLa LMNA splicing GFP/RFP minigene ratio, 48 h
Summary of the method: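 S3 HeLa stable clones carrying a lamin A-EGFP splicing minigene plus DsRed2 were seeded at 600 cells/well in Opti-MEM with 2% FBS, pin-dosed and incubated 48 h at 37°C. Acumen cytometry (488 nm) gave the GFP/RFP total-intensity ratio.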

[1] = measured here: GFP splicing reporter channel
[2] = measured here: RFP viability control channel

CCOc1ccc(C(=O)c2nc3c(n2O)CCCCC3)cc1
AC50 [1]: 31.6 µM [falling, single point]
AC50 [2]: 17.8 µM [falling, single point]

O=c1c2ccccc2nc(-c2ccoc2)n1CCc1ccccc1
AC50 [2]: 28.2 µM [rising, single point]

COc1ccc(/C=N/NC(=O)c2ccco2)cc1Cn1nc(C)cc1C
AC50 [2]: 35.5 µM [rising, single point]

Cc1cccc(C)c1OCC(=O)Nc1nc(-c2ccc(Br)cc2)ns1
AC50 [2]: 25.1 µM [rising, single point]

Cc1ccc(C(=O)NC(=S)NNC(=O)c2ccccc2[N+](=O)[O-])cc1
AC50 [2]: 12.6 µM [rising, partial curve]

Cc1cc(C)cc(-n2c(C)cc(/C=N/NC(=O)CSc3ncccn3)c2C)c1
AC50 [1]: 25.1 µM [falling, single point]
AC50 [2]: 12.6 µM [falling, single point]

COc1ccc([N+](=O)[O-])cc1COc1cc(C)cc2oc(=O)cc(-c3ccccc3)c12
AC50 [2]: 0.355 µM [falling, partial curve]

CCN(CC)CCCNC(=O)C1CCN(S(=O)(=O)CC)CC1
AC50 [2]: 0.0501 µM [rising, full curve, poor fit]

COc1cc(CNCc2cccnc2)ccc1OCc1ccccc1
AC50 [2]: 0.0708 µM [falling, full curve, poor fit]

CC(=O)c1ccc(NC(=O)c2c3c(nc4ccccc24)C(=O)N(C2CCCCC2)C3)cc1
AC50 [2]: 0.0126 µM [falling, full curve, poor fit]

CCOc1ccc2nc(NC(=O)CSc3nnnn3C3CCCCC3)sc2c1
AC50 [2]: 14.1 µM [rising, partial curve]

O=C(OC1CCCCC1)c1ccc(NC(=O)c2ccco2)cc1
AC50 [1]: 35.5 µM [rising, single point]
AC50 [2]: 35.5 µM [rising, single point]

COc1ccc(C2C(C(=O)NCCN3CCOCC3)c3ccccc3C(=O)N2C)cc1OC (stereo unspecified)
AC50 [1]: 0.708 µM [falling, full curve]
AC50 [2]: 0.891 µM [falling, full curve]

Cc1cccc(Cn2cc(C(=O)Nc3ccc(F)c(C(F)(F)F)c3)ccc2=O)c1
AC50 [1]: 15.8 µM [falling, single point]
AC50 [2]: 15.8 µM [falling, single point]

CCOC(=O)C1(CCSC)NC(c2ccco2)C2C(=O)N(C)C(=O)C21 (stereo unspecified)
AC50 [1]: 7.08 µM [falling, partial curve, poor fit]

COc1ccc2c(-c3ccccc3)cc(SCC(=O)N(C)C)nc2c1
AC50 [1]: 11.2 µM [falling, single point]
AC50 [2]: 1.12 µM [falling, partial curve, poor fit]

Cn1c(CNC(=O)c2ccccc2F)nnc1SCCOc1ccccc1
AC50 [1]: 35.5 µM [falling, single point]

O=C(/C=C/c1ccc(S(=O)(=O)N2CCOCC2)cc1)NC(=S)Nc1ccc(Cl)cc1Cl
AC50 [1]: 31.6 µM [falling, single point]
AC50 [2]: 35.5 µM [falling, single point]

c1cncc(-c2nn3c(Cn4nnc5ccccc54)nnc3s2)c1
AC50 [1]: 6.31 µM [rising, partial curve, poor fit]
AC50 [2]: 10 µM [rising, single point]

CCCCNC(=O)COC(=O)CCC(=O)c1ccc(Cl)cc1
AC50 [1]: 1.78 µM [falling, partial curve]
AC50 [2]: 3.55 µM [falling, single point]

CCc1c(C)nc2cc(-c3cc(OC)cc(OC)c3)nn2c1N1CCCC1
AC50 [2]: 15.8 µM [rising, single point]

O=C(CSc1nccn1-c1ccc(Cl)cc1)Nc1ccc2c(c1)OCO2
AC50 [2]: 20 µM [rising, single point]

CC(=O)OCCCCCCCCCCC[N+]1(C)CCCCC1
AC50 [1]: 0.891 µM [falling, full curve]
AC50 [2]: 4.47 µM [falling, partial curve]

CC(C)NCC(O)Cn1c2c(c3ccccc31)CCc1c-2cnn1-c1ccccc1 (stereo unspecified)
AC50 [1]: 2.51 µM [rising, full curve, poor fit]
AC50 [2]: 11.2 µM [rising, partial curve]

Cc1ccc(NS(=O)(=O)c2cc(Br)cc3c2N(C(=O)C2CC2)CC3)cc1C
AC50 [1]: 1.58 µM [rising, partial curve, poor fit]
AC50 [2]: 2.24 µM [rising, full curve, poor fit]

O=C(CSc1ncn[nH]1)Nc1nc(-c2ccccc2)cs1
AC50 [2]: 22.4 µM [rising, single point]

CC(=O)Oc1ccc2c(c1OC(C)=O)OCC1(O)Cc3c(cc(OC(C)=O)c(OC(C)=O)c3OC(C)=O)C21 (stereo unspecified)
AC50 [1]: 35.5 µM [falling, single point]
AC50 [2]: 35.5 µM [falling, single point]

COc1ccc(C)cc1NC(=O)c1cnc2sccn2c1=O
AC50 [2]: 0.126 µM [falling, full curve, poor fit]

O=C1OCCN1C(=O)[C@H]1[C@H](c2ccc(F)cc2)C(c2ccc(F)cc2)=NN1c1ccc(Br)cc1
AC50 [1]: 35.5 µM [falling, partial curve, poor fit]
AC50 [2]: 35.5 µM [falling, partial curve]

O=C(c1ccc(Cn2cc(Br)cn2)cc1)N1CCN(c2ccccc2)CC1
AC50 [2]: 28.2 µM [rising, single point]

CCOc1cc(/C=N/N=C2/NC(=O)C(CC(=O)O)S2)ccc1OCc1ccc(Cl)cc1Cl (stereo unspecified)
AC50 [1]: 2 µM [falling, partial curve]

CC1CCN(c2nncc3ccccc23)CC1
AC50 [2]: 5.62 µM [rising, single point]

COc1ccccc1CC(=O)Nc1cc(Cl)ccc1O
AC50 [2]: 35.5 µM [rising, single point]

NC(=O)N/N=C/c1cn(-c2ccccc2)nc1-c1ccccc1
AC50 [1]: 3.98 µM [falling, single point]
AC50 [2]: 3.98 µM [falling, single point]

CCn1c(=O)n(CC)c2cc(N3CCCCC3)c(NC(=O)Nc3ccccc3Cl)cc21
AC50 [2]: 35.5 µM [falling, single point]

COC(=O)Cn1c(=NC(=O)c2ccc(OC)cc2)sc2cc(OC)ccc21
AC50 [2]: 35.5 µM [rising, single point]

C=C(C(=O)c1ccccc1)C(C)CC(=O)c1ccccc1 (stereo unspecified)
AC50 [1]: 28.2 µM [falling, single point]
AC50 [2]: 2.82 µM [rising, partial curve, poor fit]

O=C(C1CCCCN1S(=O)(=O)c1ccccc1[N+](=O)[O-])N1CCOCC1 (stereo unspecified)
AC50 [2]: 15.8 µM [falling, single point]

CC(=O)C1C(=O)c2c(cccc2[N+](=O)[O-])C1=Nc1ccc(S(N)(=O)=O)cc1 (stereo unspecified)
AC50 [1]: 0.447 µM [rising, full curve]

CS(=O)(=O)N(CCc1ccccc1)CC(=O)N1CCN(c2ccccc2)CC1
AC50 [2]: 12.6 µM [rising, single point]

CCOC(=O)c1c(CN2CCC(C)CC2)oc2ccc(OC)cc12
AC50 [1]: 35.5 µM [rising, single point]

Cc1ccnn1C(C)C(=O)O (stereo unspecified)
AC50 [1]: 6.31 µM [falling, partial curve, poor fit]

CCCn1c(SCC(=O)c2cc(C)n(-c3ccc4c(c3)OCO4)c2C)n[nH]c1=O
AC50 [2]: 11.2 µM [rising, partial curve]

CCC(C)NC(=O)Cn1c(=O)cc(-c2ccccc2)c2c(C)nn(C)c21 (stereo unspecified)
AC50 [2]: 0.0631 µM [falling, full curve]

CN1C2CCC1CC(OC(=O)c1c[nH]c3ccccc13)C2 (stereo unspecified)
AC50 [1]: 0.0112 µM [falling, full curve, poor fit]

COc1ccccc1-c1ccc2ncnc(N3CCOCC3)c2c1
AC50 [1]: 6.31 µM [falling, partial curve]
AC50 [2]: 12.6 µM [falling, partial curve]

CC(=O)NCCNc1ncnc2ccc(-c3ccccc3C#N)cc12
AC50 [1]: 2.51 µM [falling, partial curve, poor fit]

O=C(CCc1nc(-c2ccccc2F)no1)Nc1ccc(Oc2ccccc2)cc1
AC50 [2]: 3.55 µM [rising, full curve]

CCc1cc2cc(C)cc(C)c2nc1SCC(=O)Nc1cc(C)on1
AC50 [2]: 0.00891 µM [falling, full curve]

Cc1cc(NO)nc(-c2ccc(Br)cc2)n1
AC50 [1]: 10 µM [rising, single point]
AC50 [2]: 10 µM [rising, single point]

COc1ccc(-n2c(C)cc(C(=O)COc3ccc(C)nc3[N+](=O)[O-])c2C)cc1
AC50 [1]: 14.1 µM [rising, partial curve, poor fit]
AC50 [2]: 22.4 µM [rising, partial curve]

O=C(Nc1ccc(Cl)c(Cl)c1)Nc1nc(-c2ccccc2)cs1
AC50 [2]: 20 µM [rising, partial curve, poor fit]

CCN(CC)S(=O)(=O)c1ccc(NS(=O)(=O)CC23CCC(CC2=O)C3(C)C)cc1 (stereo unspecified)
AC50 [2]: 35.5 µM [rising, single point]

N#Cc1nc(COc2ccccc2F)oc1NCCc1ccccc1
AC50 [2]: 20 µM [rising, partial curve]

COC(=O)c1ccccc1NC(=O)NCCc1c(C)nn(C)c1C
AC50 [2]: 0.0891 µM [falling, full curve]

CCCN(Cc1ccccc1)C(=S)NC(=O)c1ccccc1[N+](=O)[O-]
AC50 [1]: 5.62 µM [falling, single point]
AC50 [2]: 7.08 µM [falling, full curve, poor fit]
